These are yes or no findings as the source states them, for the method shown. In cells and extracts the contact can be indirect. Here binding means that the protein was enriched with, or labelled near, the bait; the list need not be complete.
Assays:
[1] = biological target: Human canonical CRB2 (Crumbs homolog 2) (human) (UniProt Q5IJ48); assay: affinity purification with mass spectrometry; CRB2-FLAG (GFP-FLAG as control) from HEK293T lysate on FLAG beads, washed with 0.01% SDS in TBS, incubated with lysis buffer without porcine retina lysate, FLAG peptide elution, LC-MS/MS, N = 6; interactors derive from HEK293T cells
[2] = biological target: Human canonical CRB2 (Crumbs homolog 2) (human) (UniProt Q5IJ48); assay: affinity purification with mass spectrometry; CRB2-FLAG pull-down with LC-MS/MS as a2 and a3; the sentence does not tell whether the sample was with or without porcine retina lysate

The chains behind the UniProt entries cited, without tags or fusion partners. Residues count along the entry.
UniProt Q5IJ48, residues 29-1285: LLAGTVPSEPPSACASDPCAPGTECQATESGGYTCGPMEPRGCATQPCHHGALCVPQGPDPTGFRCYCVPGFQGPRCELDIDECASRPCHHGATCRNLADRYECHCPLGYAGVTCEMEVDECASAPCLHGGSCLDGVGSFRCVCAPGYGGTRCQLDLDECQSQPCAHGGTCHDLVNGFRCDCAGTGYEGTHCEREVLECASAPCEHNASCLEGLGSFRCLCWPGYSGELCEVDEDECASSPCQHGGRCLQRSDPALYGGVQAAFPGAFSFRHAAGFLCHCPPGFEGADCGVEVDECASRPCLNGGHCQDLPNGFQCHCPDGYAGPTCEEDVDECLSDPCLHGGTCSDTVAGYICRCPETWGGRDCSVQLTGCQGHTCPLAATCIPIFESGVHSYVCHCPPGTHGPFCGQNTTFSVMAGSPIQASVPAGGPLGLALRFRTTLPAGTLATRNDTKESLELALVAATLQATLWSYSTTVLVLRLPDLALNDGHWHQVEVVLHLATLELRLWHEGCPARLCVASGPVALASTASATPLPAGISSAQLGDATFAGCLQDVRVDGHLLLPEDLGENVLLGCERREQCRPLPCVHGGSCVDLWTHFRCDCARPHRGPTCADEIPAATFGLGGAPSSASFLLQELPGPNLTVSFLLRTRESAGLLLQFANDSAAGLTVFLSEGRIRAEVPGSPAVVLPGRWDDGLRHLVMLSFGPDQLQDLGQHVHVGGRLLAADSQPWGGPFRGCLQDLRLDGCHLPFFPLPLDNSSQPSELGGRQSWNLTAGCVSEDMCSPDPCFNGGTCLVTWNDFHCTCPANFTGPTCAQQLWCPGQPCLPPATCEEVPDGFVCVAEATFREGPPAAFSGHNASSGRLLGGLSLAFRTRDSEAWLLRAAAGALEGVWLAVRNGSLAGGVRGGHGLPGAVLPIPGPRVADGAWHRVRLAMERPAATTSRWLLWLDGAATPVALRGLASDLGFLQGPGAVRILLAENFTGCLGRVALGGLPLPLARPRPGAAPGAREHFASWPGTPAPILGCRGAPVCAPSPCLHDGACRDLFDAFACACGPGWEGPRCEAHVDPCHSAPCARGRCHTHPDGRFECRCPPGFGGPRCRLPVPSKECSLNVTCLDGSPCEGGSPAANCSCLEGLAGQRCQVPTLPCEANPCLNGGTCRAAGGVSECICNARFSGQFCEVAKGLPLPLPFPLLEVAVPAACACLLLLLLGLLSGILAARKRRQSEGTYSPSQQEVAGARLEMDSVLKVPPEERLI

B1: LIN7C (protein, UniProt Q9NUP9 1-197)
chain: MAALGEPVRLERDICRAIELLEKLQRSGEVPPQKLQALQRVLQSEFCNAVREVYEHVYETVDISSSPEVRANATAKATVAAFAASEGHSHPRVVELPKTEEGLGFNIMGGKEQNSPIYISRIIPGGIADRHGGLKRGDQLLSVNGVSVEGEHHEKAVELLKAAQGKVKLVVRYTPKVLEEMESRFEKMRSAKRRQQT
- binding [1]: binds

B2: ARL8A (protein, UniProt Q96BM9 1-186)
chain: MIALFNKLLDWFKALFWKEEMELTLVGLQYSGKTTFVNVIASGQFNEDMIPTVGFNMRKITKGNVTIKLWDIGGQPRFRSMWERYCRGVSAIVYMVDAADQEKIEASKNELHNLLDKPQLQGIPVLVLGNKRDLPGALDEKELIEKMNLSAIQDREICCYSISCKEKDNIDITLQWLIQHSKSRRS
- binding [2]: binds

Reference: publication PMC10992996
